Patent US11472855, “RNA-binding protein” (Panitch Schwarze Belisario & Nadel LLP)

Columns and labels:
Test in all cases: EMSA
[1] = tested on: T1, hPUF_MT(R5:A_13R)(R5:A_13Y)2(R6:G_13Y)3; details: 13R slightly greater; purified recombinant protein; label: Alexa680 at 5' and 3'
T1 sequence: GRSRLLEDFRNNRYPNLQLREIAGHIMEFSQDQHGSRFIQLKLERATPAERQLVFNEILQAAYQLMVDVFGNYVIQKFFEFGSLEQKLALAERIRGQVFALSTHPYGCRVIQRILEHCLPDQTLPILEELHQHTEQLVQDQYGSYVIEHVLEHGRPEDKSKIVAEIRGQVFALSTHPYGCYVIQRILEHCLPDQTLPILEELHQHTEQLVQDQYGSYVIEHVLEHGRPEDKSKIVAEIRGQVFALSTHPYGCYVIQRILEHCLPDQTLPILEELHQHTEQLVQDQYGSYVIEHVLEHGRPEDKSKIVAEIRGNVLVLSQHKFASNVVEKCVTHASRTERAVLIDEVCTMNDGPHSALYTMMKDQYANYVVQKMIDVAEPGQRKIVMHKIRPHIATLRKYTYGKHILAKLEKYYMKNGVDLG

[2] = tested on: hPUF_MT(R8_N12S,Q16R, R3→R5, R4→R6) R8 repeat N12S,Q16R; details: C>>G; purified recombinant protein; label: Alexa680 at 5' and 3'; variant of OTS-1511
[3] = tested on: T2, hPUF_MT(1-2-5-6-5-6-5_ILQ-8) last R5 C-terminus changed to ILQ; details: weaker than WT; purified recombinant protein; label: Alexa680 at 5' and 3'; variant of OTS-1511
T2 sequence: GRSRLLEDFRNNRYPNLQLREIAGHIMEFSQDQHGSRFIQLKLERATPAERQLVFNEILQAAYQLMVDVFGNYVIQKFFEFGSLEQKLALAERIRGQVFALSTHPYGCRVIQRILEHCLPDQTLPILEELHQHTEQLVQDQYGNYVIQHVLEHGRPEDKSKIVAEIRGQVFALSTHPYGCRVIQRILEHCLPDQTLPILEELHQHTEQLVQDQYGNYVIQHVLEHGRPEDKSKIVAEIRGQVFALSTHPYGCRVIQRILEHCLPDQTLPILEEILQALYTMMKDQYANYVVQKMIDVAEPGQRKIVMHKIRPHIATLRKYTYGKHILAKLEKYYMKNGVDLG

hPUF_MT(R7→R5) = tested on: T3, hPUF_MT(R7→R5); details: significantly weaker than WT; purified recombinant protein; label: Alexa680 at 5' and 3'; variant of OTS-1511
T3 sequence: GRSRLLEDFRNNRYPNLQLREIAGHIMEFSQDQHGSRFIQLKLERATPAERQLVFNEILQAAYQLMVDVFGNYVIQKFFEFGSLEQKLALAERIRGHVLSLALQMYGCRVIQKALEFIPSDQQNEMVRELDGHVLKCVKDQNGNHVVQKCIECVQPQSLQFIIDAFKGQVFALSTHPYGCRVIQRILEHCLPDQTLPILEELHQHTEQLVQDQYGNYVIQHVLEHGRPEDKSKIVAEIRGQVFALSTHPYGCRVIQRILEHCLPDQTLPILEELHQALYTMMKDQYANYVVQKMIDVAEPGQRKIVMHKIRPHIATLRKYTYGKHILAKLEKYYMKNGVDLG

[4] = tested on: T4, hPUF_MT(1-2-5-6-5-6-5-6_IRP) last R6 C-terminus changed to IRP; details: weaker than WT; purified recombinant protein; label: Alexa680 at 5' and 3'; variant of OTS-1511
T4 sequence: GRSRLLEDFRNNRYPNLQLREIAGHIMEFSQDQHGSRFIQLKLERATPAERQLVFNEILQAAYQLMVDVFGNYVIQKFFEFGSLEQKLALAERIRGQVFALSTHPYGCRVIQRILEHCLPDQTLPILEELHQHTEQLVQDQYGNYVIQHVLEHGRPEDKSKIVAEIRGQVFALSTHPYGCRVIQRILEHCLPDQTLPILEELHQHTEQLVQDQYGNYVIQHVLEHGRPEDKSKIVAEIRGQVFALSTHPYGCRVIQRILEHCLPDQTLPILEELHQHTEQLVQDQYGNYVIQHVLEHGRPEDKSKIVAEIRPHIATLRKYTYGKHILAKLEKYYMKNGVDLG

[5] = tested on: T5, hPUF_MT(R7_S12C,E16Q, R3→R5, R4→R6) R7 repeat S12C,E16Q; details: U>C; purified recombinant protein; label: Alexa680 at 5' and 3'; variant of OTS-1511
T5 sequence: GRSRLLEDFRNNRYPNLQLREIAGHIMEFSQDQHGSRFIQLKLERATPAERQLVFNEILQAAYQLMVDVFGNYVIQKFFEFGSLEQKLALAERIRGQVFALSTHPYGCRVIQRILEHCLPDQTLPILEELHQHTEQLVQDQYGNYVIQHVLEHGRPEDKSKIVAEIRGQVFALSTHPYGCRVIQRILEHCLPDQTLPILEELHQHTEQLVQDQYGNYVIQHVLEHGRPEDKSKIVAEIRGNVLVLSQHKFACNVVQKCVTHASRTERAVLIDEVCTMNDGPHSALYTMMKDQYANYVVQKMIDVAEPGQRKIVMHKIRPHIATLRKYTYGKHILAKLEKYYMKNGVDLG

CCAGAAUUGGAGAGAUAUUCG [OTS-2008]
binding result [1]: binds more weakly

CCAGAAUGGUAUAUAUUCG [OTS-2034]
binding result [2]: binds more weakly

CCAGAAUUAUAUAUAUUCG [OTS-1754]
binding result [3]: binds more weakly
binding result (hPUF_MT(R7→R5)): binds more weakly
binding result [4]: binds more weakly

CCAGAAUUCUAUAUAUUCG [OTS-2033]
binding result [5]: binds more weakly

A weaker result is weaker than the reference pair of the same experiment. For part of these data: Protein sequences can lack the tags named with them.
